At least one structure is not confirmed: it was looked up by name or label, or the drawing left a doubt.
Tested on: serum total cholesterol level
Test: Effect on serum total cholesterol level in rats fed a hypercholesterolemic diet
Type: in vivo, Male SD rats
Conditions: rats fed with a diet supplemented by cholesterol and sodium cholate; comparator is a compound of Japanese Patent Publication (unexamined) No. 122250 (1979)

Which “decreasing effect on the serum total cholesterol level relative to sodium 2-[4-{2-(benzenesulfonylamino)ethyl}phenoxy]-2-methylpropionate” value does the source give for `CC(Cc1ccc(OC(C)(C)C(=O)[O-])cc1)NS(=O)(=O)c1ccc(Cl)cc1.[Na+]` (racemic) [Example 3, sodium 2-[4-{(RS)-2-(p-chlorobenzenesulfonylamino)propyl}phenoxy]-2-methylpropionate] here?
Its value is “more than 3 times”.
